# Assay results: PubChem BioAssay AID1347076 (National Center for Advancing Translational Sciences (NCATS), 2019)
# In all, about 400,000 compounds went through this assay and about 13,000 (3.2%) were called active. The inconclusive results got no clear call from the source; some entries with a clear call stand among them for comparison. Calls follow the shape of the dose curve; as a rule, active = well fitted cell-killing curve with a large enough effect; inconclusive = small, poorly fitted or top-dose-only effect, or effect the other way; inactive = flat fitted curve, though single readings scatter. Potencies of inconclusive entries are doubtful fits and often do not repeat.
# Experiment: qHTS assay for MDR1-selective chemotherapeutics: Primary screen using the drug-selected MDR subline cells KB-V1; also: nearly all actives have a fitted effect of over 60% in size
# Settings: KB-V1 MDR cells viability, CellTiter-Glo, 72 h; series mostly up to 46.1 µM
# Outline: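 Potencies derive from concentration-effect curves fitted to normalized luminescence (CellTiter-Glo) of KB-V1 cells treated for 72 h at 37 degrees C in phenol-red-free DMEM containing 10% FBS.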
# Potency is read from the fitted curve at half-maximal effect.
row,Compound,Potency
1,CCc1ccccc1N(C)C(=O)Cn1cnc2sc(C)c(S(=O)(=O)N3CCC(C)CC3)c2c1=O,inactive
2,COc1ccc(C(CNc2ccc(S(=O)(=O)N3CCN(C)CC3)cc2[N+](=O)[O-])N(C)C)cc1 (centres undefined),"inconclusive: 7.31 µM [cytotoxic, partial curve]"
3,CCc1cc(C(=O)NNC(=O)c2csc(N3CCOCC3)n2)sc1C,"inconclusive: 29.1 µM [cytotoxic, single point]"
4,Cc1cccc(OCCCC(=O)N2CCCCCC2)c1C,"inconclusive: 16.4 µM [cytotoxic, single point]"
5,COc1ccccc1CNC(=O)C1CC(c2cccc([N+](=O)[O-])c2)=NO1 (centres undefined),"inconclusive: 32.6 µM [cytotoxic, single point]"
6,COc1ccc(/C=C/C(=O)NCC(c2ccc(F)cc2)N2CCOCC2)cc1OC (centres undefined),inactive
7,Cc1c(NC(=O)C(C)N(c2ccccc2)S(C)(=O)=O)c(=O)n(-c2ccccc2)n1C (centres undefined),inactive
8,CCOC(=O)C1C(=O)OC(C)(C)C1C(C)C(=O)c1ccc(C)cc1 (centres undefined),active: 14.6 µM
9,O=C(Cn1nc(-c2ccccc2)c2c(c1=O)CCCC2)Nc1ccc(F)c(Cl)c1,"inconclusive: 18.4 µM [cytotoxic, single point]"
10,CCN(CC(=O)Nc1c(F)cccc1F)C(=O)/C=C/c1ccc2ccccc2n1,"inconclusive: 9.2 µM [cytotoxic, partial curve]"
11,Cc1cc(C)nc(NC(=O)CSc2nc3ccccc3s2)n1,"inconclusive: 18.4 µM [cytotoxic, partial curve, poor fit]"
12,Cc1ccnc(NC(=O)c2ccc([N+](=O)[O-])s2)c1,"inconclusive: 29.1 µM [cytotoxic, single point]"
13,CCCCCCC[n+]1ccc(C)c2ccccc21,inactive
14,C=C1C=C(C(F)F)n2ncc(C(=O)N3CCN(c4ccccc4)CC3)c2N1,"inconclusive: 23.1 µM [cytotoxic, single point]"
15,CCOc1ccc2nc(NC(=O)c3cccnc3)sc2c1,"inconclusive: 4.61 µM [cytotoxic, full curve]"
16,CSCCC(NC(=O)c1cccc(S(=O)(=O)N2CCOCC2)c1)C(=O)Nc1cccc(C)c1 (centres undefined),"inconclusive: 20.6 µM [cytotoxic, partial curve, poor fit]"
17,Cn1c(=O)c2c(ncn2CCCc2ccccc2)n(C)c1=O,active: 14.6 µM
18,CCN1CCN(Cc2cccc(Oc3ccccc3)c2)CC1,"inconclusive: 16.4 µM [cytotoxic, partial curve, poor fit]"
19,COc1cccc(-c2noc(COc3ccc(C(C)(C)C)cc3)n2)c1,"inconclusive: 29.1 µM [rising, single point]"
20,CCn1c(=O)c2cc(C(=O)NC3CCC(C)CC3)sc2c2ccccc21 (centres undefined),inactive
21,O=C(Nc1cccc(C(F)(F)F)c1)c1cccc2c(-c3cccnc3)coc12,inactive
22,CC(C)(C)C(=O)N(Cc1ccccc1)c1ccccn1,"inconclusive: 20.6 µM [cytotoxic, single point]"
23,Cc1nc2ccccc2n1C(C)c1nc2ccccc2n1CC(=O)c1ccc(OC(F)(F)F)cc1 (centres undefined),"inconclusive: 10.3 µM [cytotoxic, partial curve]"

row,Compound,Potency
1,CN(CCNC(=O)C1CCN(c2ncnc3c2nc2n3CCCCC2)CC1)Cc1ccccc1,"inconclusive: 23.1 µM [cytotoxic, single point]"
2,COc1ccc(N2CCN(C(=O)c3cc4c(C)nc5ccccc5c4o3)CC2)cc1,"inconclusive: 4.11 µM [cytotoxic, full curve, poor fit]"
3,Cc1noc(C)c1-c1ccc(C(=O)Nc2cccc(C(F)(F)F)c2)c2occc12,inactive
4,Cn1c(SCC(=O)N(C2CCCCC2)C2CCCCC2)nnc1-c1cccs1,inactive
5,COc1ccc(CCNC(=O)CSc2cccc3cccnc23)cc1OC,inactive
6,CCNC(=O)c1ccc(CSc2nc3cccnc3n2Cc2ccc(OC)cc2)cc1,"inconclusive: 18.4 µM [cytotoxic, single point]"
7,COc1cc(NC2=Nc3cccc4cccc2c34)cc(OC)c1OC,active: 2.59 µM
8,COC(=O)[C@@]12C[C@@H](CC(=O)NCCc3ccccc3OC)C(=O)N(Cc3ccc4c(c3)OCO4)C1=CCC(C)(C)C2,"inconclusive: 13 µM [cytotoxic, partial curve]"
9,CCCNc1nc2c(c(=O)[nH]c(=O)n2C)n1CCCc1ccccc1,"inconclusive: 25.9 µM [rising, single point]"
10,COc1ccc(NC(=O)Nc2cc(C)ccc2F)cc1,"inconclusive: 18.4 µM [cytotoxic, partial curve]"
11,CC1=C(C(=O)OCc2ccccc2)C(c2cccs2)NC(=O)N1CCCC(=O)O (centres undefined),"inconclusive: 29.1 µM [rising, single point]"
12,O=C(NCC(=O)N(CC1CCCO1)C1(C(=O)NC2CCCCC2)CCCCC1)c1ccccc1 (centres undefined),active: 3.26 µM
13,CCOc1cc(S(=O)(=O)N2CCCC2)ccc1Cl,inactive
14,CCOC(=O)N1CCC2(CC1)OC(=O)C(C)=C2C(=O)NCc1ccc(C)cc1,inactive
15,CN(C)c1cccc(C(=O)OCC(=O)N(C)c2ccccc2)c1,"inconclusive: 23.1 µM [rising, single point]"
16,NC(=O)CCC(=O)N1CCCC(C(=O)c2ccc(C(F)(F)F)cc2)C1 (centres undefined),"inconclusive: 0.0058 µM [rising, full curve, poor fit]"
17,O=C(NCCN1CCC(n2c(=O)[nH]c3ccccc32)CC1)c1ccc(Cl)cc1Cl,"inconclusive: 13 µM [cytotoxic, partial curve, poor fit]"
18,CCCn1c(N2CCN(CC(=O)c3c[nH]c4ccccc34)CC2)nc2c1c(=O)[nH]c(=O)n2C,inactive
19,O=[N+]([O-])c1cccc(CSc2nc3ccccc3[nH]2)c1,"inconclusive: 20.6 µM [cytotoxic, partial curve]"
20,O=C(O)c1ccccc1C=NNc1ccc([N+](=O)[O-])cn1,inactive
21,Cc1[nH]n(C(N)=S)c(=O)c1N=Nc1cccc(C(F)(F)F)c1,inactive
22,Cc1ccnc(NC(=O)CCC(=O)N(CC(=O)NC(C)(C)C)c2ccc3c(c2)OCO3)c1,"inconclusive: 29.1 µM [cytotoxic, single point]"
23,CCCNC(=O)Cc1c(C)n(C(=O)c2ccc(Cl)cc2)c2ccc(OC)cc12,inactive

# Individual results from the list:
# For Potency, CCn1c(=O)c2cc(C(=O)NC3CCC(C)CC3)sc2c2ccccc21 (centres undefined) has inactive
# For Potency, COc1ccc(CCNC(=O)CSc2cccc3cccnc23)cc1OC has inactive

# (listing goes on)

row,Compound,Potency
1,CCC1CCc2nc3sc(C(=O)Nc4ccc(C)cc4C)c(N)c3cc2C1 (centres undefined),"inconclusive: 16.4 µM [rising, partial curve, poor fit]"
2,CC(C)CNC(=S)NNC(=O)c1csc2c1CCC(C)C2 (centres undefined),active: 7.31 µM
3,CS(=O)(=O)N(CC(=O)Nc1ccc(F)c(F)c1)c1cccc([N+](=O)[O-])c1,"inconclusive: 32.6 µM [rising, partial curve, poor fit]"
4,O=C1N/C(=N\N=C\c2cccs2)SC1Cc1cccc(Cl)c1 (centres undefined),"inconclusive: 7.31 µM [cytotoxic, partial curve, poor fit]"
5,Cc1onc(-c2ccccc2)c1C(=O)N(CC(C)C)c1c(N)n(CC(C)C)c(=O)[nH]c1=O,"inconclusive: 29.1 µM [rising, single point]"
6,O=C(COC(=O)c1ccc(F)cc1Cl)NC1CCS(=O)(=O)C1 (centres undefined),inactive
7,COC(=O)CCN1CCC(c2cc(-c3cccc(C(F)(F)F)c3)n[nH]2)CC1,inactive
8,O=C1c2ccccc2-c2cccc(NS(=O)(=O)c3ccc(C(F)(F)F)cc3)c21,active: 23.1 µM
9,CCc1nn(-c2ccccc2)c2nc(-c3ccc(O)cc3)c3cc(OC)c(OC)cc3c12,"inconclusive: 29.1 µM [rising, single point]"
10,CCC(OC(=O)CN1C(=O)C(=O)c2ccccc21)C(=O)Nc1ccccc1OC (centres undefined),inactive
11,O=C(CSCc1ccccc1Cl)N1CCN(c2ccccn2)CC1,"inconclusive: 18.4 µM [cytotoxic, partial curve]"
12,CCC1(C)CC(CCNS(=O)(=O)c2ccc(C)cc2)(c2ccc(C)cc2)CCO1 (centres undefined),"inconclusive: 18.4 µM [cytotoxic, partial curve]"
13,Fc1ccccc1COc1ccccc1CNCc1ccncc1,active: 6.51 µM
14,COc1cccc(CN(C)c2nc(-c3cccs3)nc3ccccc23)c1,"inconclusive: 20.6 µM [cytotoxic, single point]"
15,CCOC(=O)c1sc(N(Cc2ccccc2)C(=O)CSc2nnc(C3CC3)n2N)nc1C,"inconclusive: 9.2 µM [cytotoxic, partial curve, poor fit]"
16,CSCCC(NS(=O)(=O)c1ccc(Cl)cc1)C(=O)OCC(=O)N1CCCc2ccccc21 (centres undefined),inactive
17,COc1ccc(NC(=O)Nc2cccc3c2O[C@H](CN(C)C(=O)Nc2ccc(C(F)(F)F)cc2)[C@@H](C)CN([C@H](C)CO)C3=O)cc1,"inconclusive: 0.231 µM [rising, full curve, poor fit]"
18,CCC(=O)N1CCc2cc(S(=O)(=O)CCC(=O)N3CCN(c4cccc(Cl)c4)CC3)ccc21,"inconclusive: 23.1 µM [cytotoxic, single point]"
19,CSc1ccc(C(=O)Nc2ccc(-c3nc4ccccc4s3)c(O)c2)cc1,"inconclusive: 13 µM [rising, partial curve, poor fit]"
20,CSc1nc(N)nc(SCC(=O)c2ccc(C)cc2)c1C#N,inactive
21,O=C(CN1C(=O)c2ccccc2S1(=O)=O)Nc1cc(S(=O)(=O)N2CCCCC2)ccc1Cl,inactive
22,O=C(Nc1ccccn1)c1ccc([N+](=O)[O-])o1,"inconclusive: 25.9 µM [cytotoxic, partial curve, poor fit]"
23,COc1ccc(NC(=O)/C=C/c2c(Cl)nc3ccccn23)cc1,inactive
